Results published in paper PMC12431657, “Discovery and mechanistic insights of dibenzoylmethane as a broad spectrum inhibitor of coronavirus” (PLOS Pathogens, 2025).
Structures can show the parent of a compound that is named as a salt. Where two headings read alike, the source gives them in different places. The campaign covered roughly 3,300 compounds. About 95 (3%) showed an effect of 50% or more. The list shows a part of the results.

Tested on: HCoV-229E
Design: species or system Huh-7; HTS, protection from HCoV-229E induced cell death, luminescent cell viability (CellCounting-Lite 2.0), inhibition rate
Details: 24 h post infection, 1 h compound pre-incubation, 10 µM, inhibitor

Compound: CCc1ccc(C=O)cc1 [4-Ethylbenzaldehyde]
- 229E Inhibition rate: 11.5%

Compound: c1c2c(cc3c1OCO3)-c1cc3ccc4c(c3c[n+]1CC2)OCO4 [Coptisine (chloride)]
- 229E Inhibition rate (229E Inhibition rate, 24 h): 32%

Compound: COc1c2ccoc2cc2oc(C)cc(=O)c12 [Visnagin]
- 229E Inhibition rate: 24.9%

Compound: Oc1cccnc1 [3-Hydroxypyridine]
- 229E Inhibition rate: 4.4%

Compound: O=c1cc(-c2ccc(O)cc2)oc2cc(O)c([C@@H]3O[C@H](CO)[C@@H](O)[C@H](O)[C@H]3O[C@@H]3OC[C@H](O)[C@H](O)[C@H]3O)c(O)c12 [Isovitexin 2''-O-arabinoside]
- 229E Inhibition rate: 22.1%

Compound: O=C(/C=C\c1ccc(O)c(O)c1)N[C@@H](Cc1ccc(O)c(O)c1)C(=O)O [Clovamide]
- 229E Inhibition rate: 12.6%

Compound: O=c1oc2cc(O)ccc2c2ccccc12 [Urolithin B]
- 229E Inhibition rate: 12.4%

Compound: NCCS [Cysteamine (hydrochloride)]
- 229E Inhibition rate: 17.8%

Compound: CC1=C(O)C(=O)C(C)O1 (stereo not drawn) [Furaneol]
- 229E Inhibition rate: 17.8%

Compound: CC1(C)[C@@H](O)CC[C@]2(C)[C@H]3C(=O)C=C4[C@@H]5C[C@@](C)(C(=O)O)CC[C@]5(C)CC[C@@]4(C)[C@]3(C)CC[C@@H]12 [18β-Glycyrrhetinic acid]
- 229E Inhibition rate: 16.6%

Compound: C[C@]12CCC(=O)C=C1C=C[C@@H]1[C@@H]2CC[C@@]2(C)[C@H]1CC[C@@]21CCC(=O)O1 [Canrenone]
- 229E Inhibition rate: 24.5%

Compound: COC(=O)[C@H]1[C@H]2C[C@@H]3c4[nH]c5ccccc5c4CCN3C[C@H]2C[C@@H](OC(=O)c2cc(OC)c(OC)c(OC)c2)[C@@H]1OC [deserpidine]
- 229E Inhibition rate: 10.5%

Compound: Cc1nnc(SCC2=C(C(=O)O)N3C(=O)[C@@H](NC(=O)Cn4cc(Cl)c(=O)c(Cl)c4)[C@H]3SC2)s1 [Cefazedone]
- 229E Inhibition rate: 46.4%

Compound: C[C@@H]1O[C@@H](OC[C@H]2O[C@@H](Oc3cc(O)c4c(c3)O[C@H](c3ccc(O)c(O)c3)CC4=O)[C@H](O)[C@@H](O)[C@@H]2O)[C@H](O)[C@H](O)[C@H]1O [Eriocitrin]
- 229E Inhibition rate: 11.5%

Compound: COc1c(-c2ccccc2)oc2ccccc2c1=O [3-Methoxyflavone]
- 229E Inhibition rate: 11.8%

Compound: C[C@@H]1O[C@@H](O[C@H]2[C@H](O[C@H]3CC[C@@]4(C)[C@@H](CC[C@]5(C)[C@@H]4CC=C4[C@@H]6CC(C)(C)CC[C@]6(C(=O)O[C@@H]6O[C@H](CO[C@@H]7O[C@H](CO)[C@@H](O)[C@H](O)[C@H]7O)[C@@H](O)[C@H](O)[C@H]6O)CC[C@]45C)[C@]3(C)CO)OC[C@H](O)[C@@H]2O)[C@H](O)[C@H](O[C@@H]2O[C@H](CO)[C@@H](O[C@@H]3O[C@H](CO)[C@@H](O)[C@H](O)[C@H]3O)[C@H](O)[C@H]2O)[C@H]1O [Macranthoidin B]
- 229E Inhibition rate: 13.2%

Compound: O=c1ccc2cc3ccoc3c(O)c2o1 [Xanthotoxol]
- 229E Inhibition rate: 35.1%

Compound: COC(=O)c1ccc(O)c(O)c1 [Methyl 3,4-dihydroxybenzoate]
- 229E Inhibition rate: 27.5%

Compound: C=C(C)[C@@H]1CC[C@]2(C)CC[C@]3(C)[C@H](CC[C@@H]4[C@@]5(C)CC[C@H](O)C(C)(C)[C@@H]5CC[C@]43C)[C@@H]12 [Lupeol]
- 229E Inhibition rate: 5.5%

Compound: C=C1CCC[C@]2(C)C[C@@H]3OC(=O)C(C)=C3C[C@@H]12 [Atractylenolide II]
- 229E Inhibition rate: 11.9%

Compound: C[C@H]1O[C@@H](O[C@H]2[C@@H](O)C[C@H](O[C@H]3[C@@H](O)C[C@H](O[C@H]4CC[C@@]5(C)[C@H](CC[C@@H]6[C@@H]5CC[C@]5(C)[C@@H](C7=CC(=O)OC7)CC[C@]65O)C4)O[C@@H]3C)O[C@@H]2C)C[C@H](O)[C@@H]1O [Digitoxin]
- 229E Inhibition rate: 25%

Compound: Cn1c(Cc2ccccc2)nc(=O)c2ccccc21 [Arborine]
- 229E Inhibition rate: 9.1%

Compound: Cc1cc2nc3c(=O)[nH]c(=O)nc-3n(C[C@H](O)[C@H](O)[C@H](O)COP(=O)(O)OP(=O)(O)OC[C@H]3O[C@@H](n4cnc5c(N)ncnc54)[C@H](O)[C@@H]3O)c2cc1C [Flavin adenine dinucleotide (disodium salt)]
- 229E Inhibition rate: 22.7%

Compound: COc1cc2c(cc1O)CC[n+]1cc3c(OC)c(OC)ccc3cc1-2 [Jatrorrhizine (chloride)]
- 229E Inhibition rate (229E Inhibition rate, 24 h): 16%

Compound: CC(=O)c1ccc2ccccc2c1 [2-Acetonaphthone]
- 229E Inhibition rate: 17.5%

Compound: Cc1ccccc1C(=O)NCC(=O)O [2-(2-Methylbenzamido)acetic acid]
- 229E Inhibition rate: 54.8%

Compound: C=C(C(=O)O)[C@H]1CC[C@H](C)[C@@H]2CC(=O)C(C)=C2C1 [Rupestonic acid]
- 229E Inhibition rate: 12.5%

Compound: CCC(CC)C(=O)O [2-Ethylbutyric acid]
- 229E Inhibition rate: 24.1%

Compound: C=C[C@@](C)(/C=C/c1ccc(O)cc1)CCC=C(C)C [Bakuchiol]
- 229E Inhibition rate: 18.3%

Compound: C[C@@H](O)C(=O)O [D-(-)-Lactic acid (sodium)]
- 229E Inhibition rate: 8.1%

Compound: CC(C)[C@@H]1CC[C@@H](C)CC1=O [Menthone]
- 229E Inhibition rate: 20.2%

Compound: COc1cc(-c2c3c(c(O)c4cc5c(cc24)OCO5)COC3=O)cc(OC)c1OC [Tetradehydropodophyllotoxin]
- 229E Inhibition rate: 21%

Compound: CC1(C)CC[C@]2(C(=O)O)CC[C@]3(C)C(=CC[C@@H]4[C@@]5(C)C[C@@H](O)[C@H](O)[C@@](C)(CO)[C@@H]5CC[C@]43C)[C@@H]2C1 [Arjunolic acid]
- 229E Inhibition rate: 21.2%

Compound: CC(C(=O)O)C(O)(CC(=O)O)C(=O)O (stereo not drawn) [2-Methylcitric acid]
- 229E Inhibition rate: 13.8%

Compound: CO[C@@H]1[C@@H](OC)[C@H](C)[C@@](O)(CC(=O)O)O[C@H]1[C@H](C)[C@H]1O[C@@]2(CC[C@@](C)([C@H]3CC[C@@](C)([C@@H]4O[C@@H]([C@H]5O[C@](C)(O)[C@H](C)C[C@@H]5C)C[C@@H]4O[C@@H]4C[C@H](OC)[C@@H](OC)[C@H](C)O4)O3)O2)C[C@H](O)[C@H]1C [Maduramicin (ammonium)]
- 229E Inhibition rate: 3.4%

Compound: NCCCCN [1,4-Diaminobutane (dihydrochloride)]
- 229E Inhibition rate: 38%
